Library screen at single concentrations

Sequences of proteins named here, by UniProt entry; tags and fusion partners are left off. Residues count along the entry.
UniProt Q8IDJ8, 1-583: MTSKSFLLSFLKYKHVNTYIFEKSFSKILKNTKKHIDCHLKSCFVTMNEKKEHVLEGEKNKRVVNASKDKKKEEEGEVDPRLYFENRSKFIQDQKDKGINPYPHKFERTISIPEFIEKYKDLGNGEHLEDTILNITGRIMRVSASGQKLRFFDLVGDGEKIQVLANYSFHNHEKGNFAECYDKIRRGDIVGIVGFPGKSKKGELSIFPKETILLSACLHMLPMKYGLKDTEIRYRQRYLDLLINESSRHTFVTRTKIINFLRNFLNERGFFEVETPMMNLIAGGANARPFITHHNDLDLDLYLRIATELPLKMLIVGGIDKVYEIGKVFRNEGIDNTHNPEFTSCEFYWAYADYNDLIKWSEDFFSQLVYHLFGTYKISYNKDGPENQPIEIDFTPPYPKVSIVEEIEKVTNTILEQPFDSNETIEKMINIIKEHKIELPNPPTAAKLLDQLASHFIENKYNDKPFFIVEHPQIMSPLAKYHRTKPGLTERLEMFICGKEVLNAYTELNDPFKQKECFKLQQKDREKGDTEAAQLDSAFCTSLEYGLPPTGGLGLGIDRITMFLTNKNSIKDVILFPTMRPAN

The filed quantity is “Percent Effect” (%). The record does not define 0% and 100%; most values in the screen are far below 50% and negative numbers occur (in some assays of this library far below -100). The compounds are a random part of those screened.

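Enzyme assay of the cytosolic lysyl-tRNA synthetase in 384-well plates, read by luminescence. Target: Lysine-tRNA ligase, Plasmodium falciparum 3D7 (UniProt Q8IDJ8). Compounds at 30 µM. Higher reads as stronger inhibition, judged from the few compounds that gave an IC50. Size under these conditions: about 69,000 compounds, about 49 of them at 50% or above in at least one test.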

Compound	percent effect
Cc1csc2c(N3CCNC(C(=O)Nc4ccc(F)cc4)C3)ncnc12 (stereo not shown)	4.745
CC(C)(C)n1ncc2c1CCCC2NCc1cccc2c1OCCO2 (stereo not shown)	3.761
Cc1nc(CN2CCN(C(=O)c3sccc3C)CC2)cs1	1.341
COC(=O)NC1(C(=O)Nc2ccc(-c3cc[nH]n3)cc2)CCCC1	2.02
O=C(C1CCCCC1)N1CCCC2(CCN(c3cnccn3)CC2)C1	3.717
Cc1ccc2nc(CN(Cc3ccc(C#N)cc3)C(C)C)cc(=O)n2c1	6.249
O=C(CNCC1(O)CCCN(Cc2cccc(F)c2F)C1=O)NC1CC1 (stereo not shown)	3.689
O=S1(=O)C[C@@H]2[C@H](C1)N(Cc1ncc[nH]1)CCN2CC1CC1	4.07
CN(Cc1coc(-c2ccccc2)n1)CC1CCCN1c1cccnn1 (stereo not shown)	-4.391
Cn1cnc2c1CCN(Cc1noc(-c3ccccc3)n1)C2	6.08
COCCN(CCOC)C(=O)c1ccoc1C	-0.08846
COc1ccc(Cl)c(NCC(=O)NCC(=O)N2CCCC2)c1	3.608
CCOc1ccnc(N2CCN(C(=O)C(C)(C)C#N)CC2)n1	4.405
Cc1cccc(CNC(=O)NCC2CCN(Cc3ncc[nH]3)C2)c1 (stereo not shown)	9.221
Cc1cc2c(=O)n3c(nc2s1)CCN(Cc1ccncc1)CC3	5.328
Cc1cc2c(=O)n3c(nc2s1)CCN(Cc1cncn1C)CC3	0.2637
Cc1cc(C)c2c(c1)C(NC(=O)CSc1nnc[nH]1)CCO2 (stereo not shown)	4.355
CCOc1ccnc(N2CCN(C(=O)CCc3ccncc3)CC2)n1	7.24
COc1ccccc1CC1CCCN(C(=O)c2cn[nH]c2C)C1 (stereo not shown)	1.956
CC(CNC(=O)N(C)Cc1ccco1)N1CCc2sccc2C1 (stereo not shown)	1.172
COC1CCN(C(=O)Nc2cc(C(F)(F)F)c[nH]c2=O)CC1	0.6086
CCc1nc(CN(C)C2CCCN(c3cccnn3)C2)no1 (stereo not shown)	-3.388
CCN1CC(C(=O)NCCCc2nc(C)c(C)s2)CC1=O (stereo not shown)	3.332
CCc1ncc(C(=O)NCCNC(=O)Cc2ccc(F)cc2)s1	3.537
CC(C)(C)OC(=O)N1CCN(c2cccnc2)CC1C(=O)O (stereo not shown)	1.7
Cc1nc(Oc2ccccc2Cl)sc1C(=O)O	11.2
CCC1=N[C@@]2(CC[C@@H]3CN(Cc4ccccc4F)C[C@@H]32)C(=O)N1	6.903
CC1=C(CCN2CC[C@@H](N3CCC(O)CC3)[C@H](O)C2)C(C)(C)CCC1	2.328
CC(C)NC(=O)c1nnn(-c2cccc(C(F)(F)F)c2)c1N	2.005
O=C(NCCC(=O)N1CCCc2ccccc21)c1ccc(F)cc1F	0.2167
CCN(CC)C1COc2c(cc(Br)c(C)c2C)C1=O (stereo not shown)	2.862
COCCSCC(=O)NC1(c2cccc(Br)c2)CC1	-0.3447
O=C(C1CC(=O)N(c2ccccc2Br)C1)N1CCCCCC1 (stereo not shown)	5.572
CC1CCCN(CCNC(=O)c2ccn(-c3ccc(F)cc3)n2)C1 (stereo not shown)	0.842
C=C(C)CN(CC)S(=O)(=O)c1cccc(F)c1C#N	4.531
CC(C)c1cccc(CSc2nnc(Cn3cncn3)o2)n1	2.611
Cc1ccc2[nH]c(-c3cn(C4CCNCC4)nn3)nc2c1C	7.146
CN(Cc1cnc(C(C)(C)C)nc1)Cc1nc2ccc(F)cc2[nH]1	4.529
Cc1nn(C)c(N2CCOCC2)c1CNCC1CCCN1C (stereo not shown)	-0.1101
CCC(=O)N1CCC1c1cc(NC2CCCC2)nc(C)n1 (stereo not shown)	1.012
CS(=O)(=O)NC1CCN(C(=O)c2cnc(-c3cccnc3)nc2)CC1	3.654
CC1(C(=O)N2CCOCC2)CN(C2CCCCC2)CCO1 (stereo not shown)	1.459
Cc1ccc(-n2cccn2)cc1S(=O)(=O)N1C[C@H](C2CC2)[C@@H](N)C1	-5.789
Cc1ccc(OCc2nc(CNCCn3cccn3)cs2)cc1	13.52
CCCN1CCCC2(CCN(S(=O)(=O)c3cccnc3)C2)C1=O (stereo not shown)	0.9765
C[C@@H]1CN(Cc2cc(C3CCCCC3)no2)CC[C@]1(C)O	-1.385
COc1cccc(Cc2nc3c([nH]2)CC(C)(C)CNC3=O)c1OC	2.209
CC(C)N1CCCC(C(=O)N2CCc3c(nc(CC4CC4)[nH]c3=O)C2)C1 (stereo not shown)	0.03263
Cn1ccc2ccc(C(=O)N3CC[C@@]4(O)CCCC[C@H]4C3)cc21	1.164
CC(NCc1ccnc(OC2CCC2)c1)c1cnn(C)c1 (stereo not shown)	0.6656
C[C@H](O)CNc1cc(-c2cn[nH]c2)ncn1	2.123
CC(C)Cn1[nH]cc/c1=N\C(=O)CN1CCOC(Cn2cccn2)C1 (stereo not shown)	1.312
Cc1noc(C)c1CNC(=O)N(C)C1CCN(c2ccccc2)C1=O (stereo not shown)	0.1868
NC(=O)CN1CC2(CCC1=O)CCN(Cc1cc(F)ccc1Cl)CC2	5.228
COCC1CC2(CCN(c3cccc(C)n3)CC2)CN1C(C)C (stereo not shown)	2.778
CCc1nccn1C1CCCN(C(=O)c2cn3cccnc3n2)C1 (stereo not shown)	5.707
CCOc1ccnc(N2CCN(C(=O)c3ccncc3)CC2)n1	0.2646
CCN1CC(C(=O)N2CCc3cc(C(=O)N(C)C)n(C)c3C2)CCC1=O (stereo not shown)	3.752
COc1ncccc1C(Cc1ccsc1)NC(=O)Cn1cccnc1=O (stereo not shown)	2.208
CN(Cc1ncc(C(C)(C)C)o1)C1CCCN(c2cccnn2)C1 (stereo not shown)	4.515
Cc1cc(N(C)C)nc(N2CCCC2c2cccnc2)n1 (stereo not shown)	6.252
COc1ccc2nnc(CCC(=O)Nc3nc4c(s3)CCCCC4)n2n1	0.8695
O=S(=O)(NC1CC1)c1cccc(Br)c1	4.579
Cc1noc(C(C)N2CCN(CCN3CCCC3=O)CC2)n1 (stereo not shown)	2.962
Cc1cc(OCC(N)=O)ccc1NC(=O)C(C)Cc1ccccc1F (stereo not shown)	3.69
CN1CCN(C(=O)c2nnc3ccc(Cl)cc3n2)CC1	6.508
CN1CCC(CN2CCC3(CCCN(Cc4ccoc4)C3)C2=O)CC1 (stereo not shown)	4.461
Cc1ccc(-c2nn(C)c(C(=O)O)c2Br)cc1	4.437
COc1cccc(Cn2[nH]c(C)c3c(NC(=O)C(C)OC)nnc2-3)c1 (stereo not shown)	2.854
N[C@@H](Cc1ccccc1)c1nnc(S(=O)(=O)Cc2ccc(Cl)cc2)o1	-1.133
COc1ccc(CNC(=O)CCn2cc(C)cn2)cc1C	-0.4191
CC(C)CCn1c(=O)n(CCn2cccc2)c2cc(C(=O)O)cnc21	1.532
CCCc1nc(CN(CC)Cc2ccoc2)no1	5.845
CCN(CC)S(=O)(=O)c1ccc2c(c1)N(Cc1cccnc1)C(=O)CS2	-1.343
Cc1nc(CN(C)C(=O)C2CCC(=O)N(CCN(C)C)C2)cs1 (stereo not shown)	-0.2376
CCn1ncc2c1CCCC2NCC1=Cc2ccccc2OC1 (stereo not shown)	1.573
COCCN1CCC(c2nc3c([nH]2)CCCNC3=O)CC1	-1.659
COC[C@H]1CNC(=O)[C@@H]2CCN(Cc3cccc(C)n3)CC[C@H]12	7.704
O=C(C1CCOc2ccccc21)N1CCOc2cccc(F)c21 (stereo not shown)	6.244
CNC(=O)c1ccc(C(=O)N2CCCC(n3ccnc3C)C2)cn1 (stereo not shown)	2.073
Cc1ccnc(N2CCN(C[C@]3(O)CCCN4CCCC[C@@H]43)CC2)c1	2.274
Cc1ccc(CNCC2Cn3nncc3CO2)o1 (stereo not shown)	5.39
COCc1csc(NC(=O)N2CCC(Cc3cnn(C)c3)C2)n1 (stereo not shown)	2.93
CCS(=O)(=O)Nc1ccc2oc(C)c(C(C)=O)c2c1	4.073
CC(C)c1nn(C)c(Cl)c1CNCc1ccc2c(c1)OCO2	0.8467
C[C@@H]1CN(c2cc(N3CCC(O)CC3)ncn2)C[C@@]1(O)C1CC1	9.674
Cn1ccc(CN2CCCN(c3nccs3)CC2)cc1=O	1.978
Cc1nc(CSCCC(=O)Nc2cccc(N3CCNC3=O)c2)cs1	3.197
c1cnc(N2CCO[C@H]3[C@H](OCC4CC4)CC[C@@H]32)nc1	4.971
COCC1(CNC(=O)Nc2cc(F)ccc2OC)CCCC1	0.9509
CC(C)OCCOCc1cccc(NC(=O)NCc2cnn(C)c2)c1	0.07013
CC(C)NC(=O)N1CCC2(CCC(=O)N2CCN2CCCC2)CC1	-2.897
Cn1cc(C2CCCN2C(=O)CCCOc2ccccc2F)cn1 (stereo not shown)	-1.186
CNC(=O)c1nc(CC(=O)Nc2cccc(C(F)(F)F)c2)no1	-1.492

Once more, the final 12:

Result for COCc1csc(NC(=O)N2CCC(Cc3cnn(C)c3)C2)n1 (stereo not shown) was 2.93%.
Result for CCS(=O)(=O)Nc1ccc2oc(C)c(C(C)=O)c2c1 was 4.073%.
Result for CC(C)c1nn(C)c(Cl)c1CNCc1ccc2c(c1)OCO2 was 0.8467%.
Result for C[C@@H]1CN(c2cc(N3CCC(O)CC3)ncn2)C[C@@]1(O)C1CC1 was 9.674%.
Result for Cn1ccc(CN2CCCN(c3nccs3)CC2)cc1=O was 1.978%.
Result for Cc1nc(CSCCC(=O)Nc2cccc(N3CCNC3=O)c2)cs1 was 3.197%.
Result for c1cnc(N2CCO[C@H]3[C@H](OCC4CC4)CC[C@@H]32)nc1 was 4.971%.
Result for COCC1(CNC(=O)Nc2cc(F)ccc2OC)CCCC1 was 0.9509%.
Result for CC(C)OCCOCc1cccc(NC(=O)NCc2cnn(C)c2)c1 was 0.07013%.
Result for CC(C)NC(=O)N1CCC2(CCC(=O)N2CCN2CCCC2)CC1 was -2.897%.
Result for Cn1cc(C2CCCN2C(=O)CCCOc2ccccc2F)cn1 (stereo not shown) was -1.186%.
Result for CNC(=O)c1nc(CC(=O)Nc2cccc(C(F)(F)F)c2)no1 was -1.492%.

Measurements from “University of Dundee, Small-Polar-MMV Screening Library” (2021), ChEMBL document CHEMBL3988442.